Data as given in paper PMC3214075.
Positions count from the first letter of the chain named. Results are given in words; binding and its absence hold for the method and conditions named. In cells and extracts the contact can be indirect. Some results given as binding are weak or reduced against the parent protein; the word gives no strength. Tags and fused reporters may be left off the sequences shown.

By UniProt entry, the sequences of proteins in these tests, tags left out.
UniProt P10415: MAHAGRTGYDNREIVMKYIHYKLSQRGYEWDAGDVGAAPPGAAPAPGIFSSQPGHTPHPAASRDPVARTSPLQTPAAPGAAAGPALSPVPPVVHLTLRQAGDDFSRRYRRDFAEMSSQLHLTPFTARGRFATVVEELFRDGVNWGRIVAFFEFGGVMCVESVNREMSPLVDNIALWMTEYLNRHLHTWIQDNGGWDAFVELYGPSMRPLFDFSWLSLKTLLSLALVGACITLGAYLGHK

Tests used:
Assay in all cases: pull-down; GST-BAD (full length, WT or mutants) expressed in 293T cells; equal amounts of whole cell lysate (50 mM HEPES pH 7.5, 0.15 N NaCl, 1.0% NP-40, 1 mM EDTA, 1 mM EGTA, 10% glycerol) incubated with glutathione beads 4 hr at 4°C; blotted with anti-Bcl-2 or anti-14-3-3
[1] = target: T1, GST-BAD S111/112/136A, full length (mouse) (UniProt Q61337)
T1 sequence: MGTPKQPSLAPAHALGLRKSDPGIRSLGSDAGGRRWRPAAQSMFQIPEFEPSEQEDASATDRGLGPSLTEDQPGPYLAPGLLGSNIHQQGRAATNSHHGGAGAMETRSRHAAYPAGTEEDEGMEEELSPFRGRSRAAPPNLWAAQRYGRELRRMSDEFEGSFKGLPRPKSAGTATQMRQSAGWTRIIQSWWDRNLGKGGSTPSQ

[2] = target: T2, GST-BAD S111/112A, full length (mouse) (UniProt Q61337)
T2 sequence: T1 sequence with A136S

[3] = target: T3, GST-BAD S111/136A, full length (mouse) (UniProt Q61337)
T3 sequence: T1 sequence with A112S

[4] = target: T4, GST-BAD S111A, full length (mouse) (UniProt Q61337)
T4 sequence: T1 sequence with A112S, A136S

[5] = target: T5, GST-BAD S112/136A, full length (mouse) (UniProt Q61337)
T5 sequence: T1 sequence with A111S

[6] = target: T6, GST-BAD S136A, full length (mouse) (UniProt Q61337)
T6 sequence: T1 sequence with A111S, A112S

[7] = target: T7, GST-BAD wild type, full length (pEBG-BAD) (mouse) (UniProt Q61337)
T7 sequence: T1 sequence with A111S, A112S, A136S

- binding [1]: binds
- binding [2]: binds
- binding [3]: binds
- binding [4]: binds
- binding [5]: binds
- binding [6]: binds
- binding [7]: binds
Substance: Bcl-2 (from UniProt P10415 1-239)
